Consider 13 molecules from patent US20260224618A1 (ORICELL THERAPEUTICS, published 2026).

The chains behind the UniProt entries cited, without tags or fusion partners. Where a name states a change or a piece, a line headed by the entry shows the natural chain unless it says otherwise. A line that says so, or that is headed by a name, gives the form on record, which may keep a tag or linker.
Human MSLN-His antigen (Q13421, form named): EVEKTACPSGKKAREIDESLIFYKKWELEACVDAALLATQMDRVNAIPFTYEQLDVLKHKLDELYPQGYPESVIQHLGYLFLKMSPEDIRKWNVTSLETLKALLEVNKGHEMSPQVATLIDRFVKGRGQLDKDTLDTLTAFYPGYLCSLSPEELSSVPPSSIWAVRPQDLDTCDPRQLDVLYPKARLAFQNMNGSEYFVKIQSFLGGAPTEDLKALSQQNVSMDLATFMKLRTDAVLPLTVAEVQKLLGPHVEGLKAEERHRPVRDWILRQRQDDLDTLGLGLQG

Where a chain is given by its changes, count along the chain named. Results are given in words; binding and its absence hold for the method and conditions named. Some results given as binding are weak or reduced against the parent protein; the word gives no strength. For part of these data: Sequences can lack the tags named with a protein.

Experiment [1] addresses T1, Human MSLN-His antigen (human, UniProt Q13421 296-580, limits assumed).
T1 construct: also called MSLN-his protein; human MSLN protein; not shown: His tag
The experiment can be described thus: ELISA, plate coated with 2 ug/ml MSLN-His, VHH-Fc detected with anti-human IgG Fc HRP.

Experiment [2] concerns the target T1, Human MSLN-His antigen. Description: ELISA, plate coated with 2 ug/ml MSLN-His, VHH-Fc diluted 2.5-fold from 200 nM, anti-human IgG Fc HRP, OD450.
Experiment [3] has as its target T1, Human MSLN-His antigen. The experiment can be described thus: ForteBio biolayer interferometry, antibody loaded on AHC probes, human MSLN-His in solution 2-fold diluted from 100 nM, 180 s association, 360 s dissociation. Background: In BLI a coated tip is dipped into the sample, and binding shifts an interference pattern.
Experiment [4] concerns the target Human MSLN-His antigen (human) (UniProt Q13421). The experiment can be described thus: ELISA, plate coated with 2 ug/ml MSLN-His, VHH-Fc detected with anti-human IgG Fc HRP. A general note: In an ELISA, binding on a coated surface is turned into a signal by an enzyme label.
Experiment [5] shares this target. The experiment can be described thus: ELISA, plate coated with 2 ug/ml MSLN-His, VHH-Fc diluted 2.5-fold from 200 nM, anti-human IgG Fc HRP, OD450.
The target is the same in experiment [6]. The experiment can be described thus: ForteBio biolayer interferometry, antibody loaded on AHC probes, human MSLN-His in solution 2-fold diluted from 100 nM, 180 s association, 360 s dissociation.
The target of experiment [7] is T1, Human MSLN-His antigen. Description: BLI (ForteBio), AHC probe, human MSLN-His in solution.
Experiment [8] addresses T1, Human MSLN-His antigen. Description: ELISA, plate coated with 2 ug/ml MSLN-His, antibody diluted 2.5-fold from 200 nM, anti-human IgG Fc HRP, OD450. Here is the method: A high-absorption 384-well plate was coated with 2 μg/ml of MSLN-His […], and left standing at 4° C. overnight. The plate was washed three times with 1×PBST, and blocked with 5% of skimmed milk at room temperature for 2 h. During the blocking, the antibody MSLN-VHH was diluted 2.5-fold starting from a concentration of 200 nM for a total of 11 gradients. At the end of blocking, the plate was washed three times with 1×PT, into which were added corresponding diluted primary antibodies at 30 μl/well and incubated with shaking at room temperature for 1 h. The plate was washed three times with 1×PBST, into which were then added secondary antibodies Anti-human IgG Fc Antibody HRP (abcam, Item No. ab99759) and incubated at room temperature for 30-60 min. The plate was washed seven times with 1×PBST, into which was then added a TMB developer, and 2M phosphoric acid was added 3-5 min later to stop the reaction. The absorbance was read at a wavelength of 450 nm.

B1: MSLN45 VHH-Fc fusion protein (Fc fusion)
chain: QVQLQESGGGLVQPGGSLRLSCAASGSIFSINAMGWYRQPPGKQRELVAATSWGGRTNYADSVEGRFTISRDNAKNTVYLQMNSLKPEDTAVYYCKLWDGSSWDIYWGQGTQVTVSS
notes: Tested as bivalent VHH-Fc expressed in EXPI293 and detected with anti-human IgG Fc; also called MSLN-VHH; MSLN nanobody 45; not shown: Fc of the VHH-Fc fusion
B1: the binding entry with Human MSLN-His antigen [1] and with Human MSLN-His antigen [2] was “binds” in each case.

B2: MSLN47 VHH-Fc fusion protein (Fc fusion)
chain: B1 chain with P14A
notes: Tested as bivalent VHH-Fc expressed in EXPI293; also called MSLN-VHH; MSLN nanobody 47; not shown: Fc of the VHH-Fc fusion
In the case of B2, the binding entry with Human MSLN-His antigen [1] and in the experiment with Human MSLN-His antigen [2] was “binds” in each case.

B3: MSLN59 VHH-Fc fusion protein (Fc fusion)
chain: B1 chain with A23T, G26K, S27R, F29D
notes: Tested as bivalent VHH-Fc expressed in EXPI293; also called MSLN-VHH; MSLN nanobody 59; not shown: Fc of the VHH-Fc fusion
On to B3, for which the binding entry with Human MSLN-His antigen [1] and in the experiment with Human MSLN-His antigen [2] was “binds” each time.

B4: MSLN57 VHH-Fc fusion protein (Fc fusion)
chain: B1 chain with L11M
notes: Tested as bivalent VHH-Fc expressed in EXPI293; also called MSLN-VHH; MSLN nanobody 57; not shown: Fc of the VHH-Fc fusion
In the case of B4, the binding entry in the experiment with Human MSLN-His antigen [1] and with Human MSLN-His antigen [2] was “binds” each time.

B5: MSLN55 VHH-Fc fusion protein (Fc fusion)
chain: B1 chain with P14S, R19K, S27N, F29A
notes: Tested as bivalent VHH-Fc expressed in EXPI293; also called MSLN-VHH; MSLN nanobody 55; not shown: Fc of the VHH-Fc fusion
With B5, the binding entry in the experiment with Human MSLN-His antigen [1] and with Human MSLN-His antigen [2] was “binds” in each case.

B6: MSLN58 VHH-Fc fusion protein (Fc fusion)
chain: B1 chain with L11T, A23E, S25V, S27D, I28S, F29V
notes: Tested as bivalent VHH-Fc expressed in EXPI293; also called MSLN-VHH; MSLN nanobody 58; not shown: Fc of the VHH-Fc fusion
For B6, the binding entry in the experiment with Human MSLN-His antigen [1] and in the experiment with Human MSLN-His antigen [2] was “binds” throughout.

B7: MSLN51 VHH-Fc fusion protein (Fc fusion)
chain: B1 chain with P14T
notes: Tested as bivalent VHH-Fc expressed in EXPI293; also called MSLN-VHH; MSLN nanobody 51; not shown: Fc of the VHH-Fc fusion
As to B7, the binding result with Human MSLN-His antigen [1] and with Human MSLN-His antigen [2] was “binds” throughout.

B8: MSLN50 VHH-Fc fusion protein (Fc fusion)
chain: QVQLQESGGGLVQPGGSLRLSCAASGSISKIAIMGWYRQPPGNERELIAIANMTGTGVYRDTVKGRFTIRRDNAKNMVYLQMNNLKSEDTGVYYCHARQLGVGSFESWGQGTQVTVSS
notes: Tested as bivalent VHH-Fc expressed in EXPI293; also called MSLN-VHH; MSLN nanobody 50; not shown: Fc of the VHH-Fc fusion
For B8, the binding result with Human MSLN-His antigen [1] and with Human MSLN-His antigen [2] was “binds” each time.

B9: MSLN46 VHH-Fc fusion protein (Fc fusion)
chain: QVQLQESGGGLVQAGGSLRLSCEASGHTDSYYPKAWFRQAPGKEREFVASIGWGGRMTAYADSVKGRFTVSRTYAKNTVYLQMNSLKPEDTAVYYCAAGIGWAPTADSGEYDYWGQGTQVTVSS
notes: Tested as bivalent VHH-Fc expressed in EXPI293; also called MSLN-VHH; MSLN nanobody 46; not shown: Fc of the VHH-Fc fusion
Consider B9, for which the binding result with Human MSLN-His antigen [1], in the experiment with Human MSLN-His antigen [2] and with Human MSLN-His antigen [3] was “binds” throughout.

B10: MSLN53 VHH-Fc fusion protein (Fc fusion)
chain: B9 chain with A14P, R19T
notes: Tested as bivalent VHH-Fc expressed in EXPI293; also called MLSN-53; MSLN-VHH; not shown: Fc of the VHH-Fc fusion
Take B10: the binding result in experiment [4], in experiment [5] and in experiment [6] was “binds” throughout.

B11: MSLN52 VHH-Fc fusion protein (Fc fusion)
chain: B9 chain with R19S, E23A
notes: Tested as bivalent VHH-Fc expressed in EXPI293; also called MSLN-VHH; MSLN nanobody 52; not shown: Fc of the VHH-Fc fusion
On to B11, for which the binding result in experiment [4], in experiment [5] and in experiment [6] was “binds” in each case.

B12: MSLN48 VHH-Fc fusion protein (Fc fusion)
chain: QVQLQESGGGLVQPGGSLRLSCAASESIFSNYSASWYRQAPGKQRELVATIARTGSAFHLGSVKGRFTISRDNAKRTVYLQMNSLLPEDTAVYYCNVWDSWGQGTQVTVSS
notes: Tested as bivalent VHH-Fc expressed in EXPI293; also called MSLN-VHH; MSLN nanobody 48; not shown: Fc of the VHH-Fc fusion
On to B12, for which the binding entry in the experiment with Human MSLN-His antigen [1] and with Human MSLN-His antigen [2] was “binds” in each case.

B13: positive control antibody P4 (antibody, V domains shown)
VH: QVQLQQSGPGLVTPSQTLSLTCAISGDSVSSNSATWNWIRQSPSRGLEWLGRTYYRSKWYNDYAVSVKSRMSINPDTSKNQFSLQLNSVTPEDTAVYYCARGMMTYYYGMDVWGQGTTVTVSS
VL: QPVLTQSSSLSASPGASASLTCTLRSGINVGPYRIYWYQQKPGSPPQYLLNYKSDSDKQQGSGVPSRFSGSKDASANAGVLLISGLRSEDEADYYCMIWHSSAAVFGGGTQLTVLS
notes: an AHC probe was used in the ForteBio assay; also called positive antibody P4
On to B13, for which the binding result with Human MSLN-His antigen [7], in the experiment with Human MSLN-His antigen [8] and with Human MSLN-His antigen [3] was “binds” each time.
